Results are given in words; binding and its absence hold for the method and conditions named. In cells and extracts the contact can be indirect. These calls come from enrichment with a bait or labelling near it, and not all partners need be listed.

By UniProt entry, the sequences of proteins in these tests, tags left out.
UniProt P25963: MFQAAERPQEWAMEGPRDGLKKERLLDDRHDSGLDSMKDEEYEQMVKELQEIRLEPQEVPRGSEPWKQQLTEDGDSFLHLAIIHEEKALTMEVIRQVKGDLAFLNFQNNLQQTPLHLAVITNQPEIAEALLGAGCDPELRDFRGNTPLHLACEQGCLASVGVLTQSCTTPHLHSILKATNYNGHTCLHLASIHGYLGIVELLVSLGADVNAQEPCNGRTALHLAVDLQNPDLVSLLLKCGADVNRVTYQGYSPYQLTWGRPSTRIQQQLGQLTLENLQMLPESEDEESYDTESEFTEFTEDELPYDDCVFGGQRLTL
UniProt P16401: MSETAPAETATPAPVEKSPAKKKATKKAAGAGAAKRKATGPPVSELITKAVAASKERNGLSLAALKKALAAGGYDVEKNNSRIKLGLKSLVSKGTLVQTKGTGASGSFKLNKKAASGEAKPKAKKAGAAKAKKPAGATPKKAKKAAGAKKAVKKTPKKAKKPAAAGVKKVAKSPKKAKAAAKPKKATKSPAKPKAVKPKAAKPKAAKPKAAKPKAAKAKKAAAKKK

Consider 1 substance from PMC12501026.

The assay deals with IκBα (human (endogenous in DB)) (UniProt P25963). Kind of assay: affinity purification with mass spectrometry; immunoprecipitation with IκBα antibodies from DB cells treated with chidamide or left untreated for 24 h; SDS-PAGE, bands excised, trypsin digestion, LC-MS.

For “Histone H1.5 (from UniProt P16401 1-226)”, the binding result is “binds”.
